Where a sequence shows no end group, the ends are not given.
Assay: general procedure: Fmoc solid-phase peptide synthesis; 2-chlorotrityl chloride resin
Conditions: oxidative folding step; for oxidative folding yield: HPLC peak area folded vs reduced

Sequence	oxidative folding yield [%]	difficulty met
GFPCGESCVYLPCFTAAIGCSCKSKVCYKN	44.7	
GIPCGESCVWLPCLTSAVGCSCKSKVCYRN	27.3	
GTPCGESCVYLPCISGVIGCSCTDKVCYLN	13.3	
GIPCGESCVWLPCISSAIGCSCKSKVCYRN	30.8	
GTPCGESCVYIPCISGVIGCSCTDKVCYLN		negligible
GIPCGESCVWGPCISSAIGCSCKSKVCYRN	51.6	
GIPCGESCVWGPCLTSAVGCSCKSKVCYRN	59.2	
GIPCGESCVWIPCLTSAVGCSCKSKVCYRN	8.2	
GFPCGESCVYGPCFTAAIGCSCKSKVCYKN	57.3	
GTPCGESCVYGPCISGVIGCSCTDKVCYLN	50.5	
GFPCGESCVYIPCFTAAIGCSCKSKVCYKN		negligible
GIPCGESCVWIPCISSAIGCSCKSKVCYRN		negligible
